# Experimental data reported in PubChem BioAssay AID2685 (National Center for Advancing Translational Sciences (NCATS), 2010).
# The other results are listed elsewhere or left out. Shown are side measurements of this screen, not its main read-out; they come without a call. The list favours compounds with an active or inconclusive main result. Words in brackets tell the shape of the fitted curve; partial curves, single points and poor fits give uncertain potencies.
# Test: qHTS Assay for Lipid Storage Modulators in Drosophila S3 Cells;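 for cell number change: cells counted by Cell Tracker Red CMTPX staining in the red channel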
# Conditions: BODIPY lipid droplet fluorescence, 18-24 h; for cell number change: measured here: cell count max response, cells fed with added oleic acid
# Method in brief: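 Drosophila S3 cells loaded with oleic acid (400 uM, as added) and compounds at several concentrations; lipid droplets imaged by 488-nm laser-scanning cytometry, 500–530 nm intensity and object ratio to cell channel. Percent activity normalized to 20 uM Triacsin C.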
# [1] = measured here: lipid fluorescence (Fed channel) AC50, cells fed with added oleic acid
# [2] = measured here: cell number channel AC50, cells fed with added oleic acid
Structure (SMILES),cell number change [%],AC50 [1],AC50 [2]
Cc1nnc(NC(=O)CSc2ccc([N+](=O)[O-])cn2)s1,27.5,–,–
COc1ccc(CNC(=O)COc2ccc(F)cc2)cc1,-7.54,"0.58 µM [rising, single point]",–
CCn1cc(C(=O)N2CCN(c3cccc(C)c3C)CC2)c(=O)c2ccc(C)nc21,10.3,"32.6 µM [rising, partial curve, poor fit]",–
COC(=O)c1[nH]c2cc(C)ccc2c1NC(=O)CN1CCN(C(=O)c2ccco2)CC1,-0.0052,"1.84 µM [rising, partial curve]",–
COc1ccc(CCC(=O)OCC(=O)Nc2ccc(OC)c(OC)c2)cc1OC,-6.67,"6.51 µM [falling, single point]",–
Oc1cccc(/C=N/Nc2cc(N3CCOCC3)nc(N3CCOCC3)n2)c1,-17.5,"7.31 µM [falling, partial curve]",–
CC(OC(=O)C1CCC1)C(=O)Nc1cc(Cl)cc(Cl)c1 (stereo not drawn),-54,"16.4 µM [falling, single point]","18.4 µM [falling, single point]"
CCOC(=O)C1CCN(c2cc3c(cc2NC(=O)c2ccccc2OCC)n(C)c(=O)n3C)CC1,-1.81,"2.31 µM [falling, partial curve]","0.366 µM [falling, partial curve]"
CCn1c(SCC(=O)c2cc(C)n(-c3ccc(C(=O)OC)cc3)c2C)nnc1-c1cccnc1,-23.3,"23.1 µM [falling, single point]",–
O=C(Nc1ccc(Cl)cc1)C1CC=CCC1C(=O)OCC(F)(F)C(F)F (stereo not drawn),–,–,"6.51 µM [falling, single point]"
CCCCn1c(SCC(=O)NC2CC2)nnc1-c1ccncc1,-6.67,–,–
CCOC(=O)c1nnn(CC(=O)Nc2ccccc2OC)c1C(=O)OCC,-10.6,–,–
CCN(CC)CCNC(=O)C1c2ccccc2C(=O)N(C)C1c1cn(C)c2ccccc12 (stereo not drawn),6.25,"16.4 µM [rising, single point]",–
N#Cc1ccc(OCC(=O)N2CCN(S(=O)(=O)c3ccc(Cl)s3)CC2)cc1,-3.01,–,"0.092 µM [falling, full curve, poor fit]"
O=C(c1cc(COc2ccc3ncccc3c2)on1)N1CCC[C@H]1CO,-15.8,–,–
COc1ccc(C(=O)/C=C/N(C)C)cc1,-46.9,–,"29.1 µM [falling, single point]"
CC1=NN(C(C)C)C(=O)C1,-11.6,"0.00461 µM [falling, full curve, poor fit]",–
CCc1nnc(NC(=O)CCN2C(=O)/C(=C/c3cc(OC)c(OC)c(OC)c3)SC2=S)s1,38.7,–,"32.6 µM [rising, single point]"
C=C(C)[C@@H](O)COc1c2ccoc2cc2oc(=O)ccc12,-2.58,"23.1 µM [rising, single point]",–

Structure (SMILES),cell number change [%],AC50 [1],AC50 [2]
COc1ccnc(N=CNOCc2ccc(F)cc2Cl)c1C#N,39.2,"1.64 µM [rising, full curve]","0.461 µM [rising, full curve]"
Cc1ccccc1-c1n[nH]c(=S)n1/N=C/C=C/c1ccco1,22.3,"0.231 µM [rising, full curve]","0.259 µM [rising, full curve, poor fit]"
COC(=O)CNC(=O)c1cn(CC(C)C)c(=O)c2cc(OC)c(OC)cc12,-19.2,"29.1 µM [falling, single point]",–
CC(C)CCOc1ccc(C2=NNC(=O)CC2)cc1,-25.9,"20.6 µM [falling, partial curve]",–
Cc1nc2ccccn2c1-c1csc(Nc2ccc(C(=O)O)cc2)n1,-6.39,"0.651 µM [falling, full curve, poor fit]",–
Cc1cc(/C=C/C(=O)O)c(C)n1-c1ccc(Cl)cc1,-26,"0.92 µM [falling, partial curve]",–
COc1ccc(N(CC(=O)NCCSc2ccccn2)S(C)(=O)=O)cc1,–,"1.03 µM [falling, full curve]",–
Cc1ccnc(NC(=O)Cn2ccc([N+](=O)[O-])n2)c1,-36.2,"5.17 µM [rising, partial curve]","0.291 µM [falling, full curve, poor fit]"
CN(C)C(=O)CSC1c2ccccc2C(=O)N1c1ccccc1 (stereo not drawn),–,"29.1 µM [rising, single point]",–
c1ccc(Cn2c(SCc3cn4cccnc4n3)nnc2-c2ccco2)cc1,-1.04,–,–
COc1ccc2c(Cl)c(C(=O)OCC(=O)c3ccc4c(c3)NC(=O)CO4)sc2c1Cl,3.25,"0.291 µM [rising, full curve, poor fit]",–
C/C(=C\c1ccccc1)CN(C)CCN(C)C,22.7,"0.13 µM [falling, full curve, poor fit]",–
Cc1cc(C(=O)COC(=O)C(C)NC(N)=O)c(C)n1Cc1ccco1 (stereo not drawn),45.4,–,"32.6 µM [rising, single point]"
CC(C)NC(=O)Cn1c(=O)n(CC(=O)N2CCCCC2)c(=O)c2sccc21,–,"29.1 µM [falling, single point]",–
CCOc1cc(S(=O)(=O)n2ccc(C)n2)ccc1Br,–,–,"6.51 µM [rising, single point]"
O=C(NCCCn1ccnc1)c1ccc(OCC(F)(F)F)cc1,18.4,"0.326 µM [rising, full curve, poor fit]",–
CCC(C(=O)NCc1ccccn1)n1c2ccccc2c2nc(=O)cc(C)n21 (stereo not drawn),-39.9,"23.1 µM [falling, single point]","20.6 µM [falling, single point]"
CC(C)C[C@H](NC(=O)c1nc[nH]c1C(=O)N[C@@H](CCCCNC(=O)OC(C)(C)C)C(=O)OC(C)(C)C)C(=O)OCc1ccccc1,51.5,"23.1 µM [falling, single point]","25.9 µM [rising, single point]"
C=CCNC(=O)NC(=O)COC(=O)CNS(=O)(=O)c1ccc(F)c(F)c1F,–,"0.82 µM [falling, full curve]","0.116 µM [falling, full curve, poor fit]"

# A draw from above in order of formula weight, falling.
Structure (SMILES),cell number change [%],AC50 [1],AC50 [2]
COc1ccc2c(Cl)c(C(=O)OCC(=O)c3ccc4c(c3)NC(=O)CO4)sc2c1Cl,3.25,"0.291 µM [rising, full curve, poor fit]",–
CCCCn1c(SCC(=O)NC2CC2)nnc1-c1ccncc1,-6.67,–,–
Cc1nnc(NC(=O)CSc2ccc([N+](=O)[O-])cn2)s1,27.5,–,–
